The assay deals with T1, GFP-Ccdc85b fusion protein (mouse) (UniProt Q6PDY0).
T1 sequence: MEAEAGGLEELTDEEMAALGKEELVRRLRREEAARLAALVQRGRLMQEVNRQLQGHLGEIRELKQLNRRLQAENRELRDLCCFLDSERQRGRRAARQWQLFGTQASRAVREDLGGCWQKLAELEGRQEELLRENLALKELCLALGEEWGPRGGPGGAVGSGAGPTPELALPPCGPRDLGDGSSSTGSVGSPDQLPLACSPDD
Nature of the assay: co-IP; heterologous cells (HEK293T by the title of Figure 7) transfected with FLAG-Eurl and GFP-Ccdc85b or GFP alone; immunoprecipitation and Western blotting. Background: A western blot detects proteins with antibodies after separation by electrophoresis.

These are yes or no findings as the source states them, for the method shown. Binding seen in cells or lysates may run through a third protein. Some binding calls cover weakened binding; strength is not graded here. Tags and fused reporters may be left off the sequences shown.

B1: FLAG-tagged Eurl (protein, UniProt Q9D7G4 1-290)
chain: MNEEEQFVSIDLNDDNICSVCKLGTDKDTLSFCHICFELNLEGVPKSNLLHTKSVRGHKDCFEKYHLIANQDCSRSKLSKSTYEGVKTIVSKKINWIVQYAQNKNLDLESECSKTSQHPLLNFRHKPEKKLLPQFDSQVPKYSAKGSAGNAGSISSYAQRILEHRENTDFRLGLLEDADALWTHSHSQAQKTEETSSGPEGTIQTQNPHYSREELNSMTLAEVVQLSAKLQQRIQEVFEELTHQVQEKDSLASELHVRHVAIEQLLKNCSKLPCLQVGRTGTRSHLPMNH
Take B1: the binding result was “binds”.
